Experimental data taken from US20240166768A1.
These are yes or no findings as the source states them, for the method shown. For some of these results: Binding can be weak; no strength is given.

Chains of the proteins cited; added tags and fusions are not shown. Lines headed by an entry give the natural chain unless they say otherwise; changes in a name come on top.
UniProt P03956: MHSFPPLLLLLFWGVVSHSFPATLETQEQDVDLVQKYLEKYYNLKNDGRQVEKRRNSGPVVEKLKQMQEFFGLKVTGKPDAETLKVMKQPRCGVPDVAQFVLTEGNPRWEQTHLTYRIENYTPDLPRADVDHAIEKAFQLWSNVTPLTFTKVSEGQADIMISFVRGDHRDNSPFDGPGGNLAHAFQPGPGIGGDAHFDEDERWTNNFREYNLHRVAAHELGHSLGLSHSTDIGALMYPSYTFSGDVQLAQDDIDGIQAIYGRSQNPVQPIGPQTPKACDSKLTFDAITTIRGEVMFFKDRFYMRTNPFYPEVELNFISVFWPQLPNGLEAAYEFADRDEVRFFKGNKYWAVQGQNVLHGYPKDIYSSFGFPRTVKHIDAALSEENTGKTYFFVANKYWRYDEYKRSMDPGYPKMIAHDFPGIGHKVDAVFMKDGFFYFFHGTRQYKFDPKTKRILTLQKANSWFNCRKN
UniProt P14780: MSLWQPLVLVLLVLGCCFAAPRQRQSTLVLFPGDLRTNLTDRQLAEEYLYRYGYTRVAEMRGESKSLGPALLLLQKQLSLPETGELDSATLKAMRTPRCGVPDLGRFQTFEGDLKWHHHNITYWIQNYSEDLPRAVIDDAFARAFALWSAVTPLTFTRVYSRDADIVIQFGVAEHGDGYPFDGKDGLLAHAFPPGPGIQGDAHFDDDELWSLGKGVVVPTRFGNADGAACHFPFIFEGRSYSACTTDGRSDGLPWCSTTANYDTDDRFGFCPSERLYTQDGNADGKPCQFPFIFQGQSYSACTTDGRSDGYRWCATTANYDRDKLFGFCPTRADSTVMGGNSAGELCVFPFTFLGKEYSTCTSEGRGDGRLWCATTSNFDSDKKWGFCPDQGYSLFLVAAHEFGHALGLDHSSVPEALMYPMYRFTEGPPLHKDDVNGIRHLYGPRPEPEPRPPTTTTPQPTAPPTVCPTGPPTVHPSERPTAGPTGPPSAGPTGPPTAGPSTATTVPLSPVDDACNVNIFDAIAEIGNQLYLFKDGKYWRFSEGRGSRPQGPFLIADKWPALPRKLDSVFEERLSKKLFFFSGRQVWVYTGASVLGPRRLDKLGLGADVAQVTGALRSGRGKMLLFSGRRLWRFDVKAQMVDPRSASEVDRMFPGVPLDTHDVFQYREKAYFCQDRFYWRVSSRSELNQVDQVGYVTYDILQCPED
UniProt P09237: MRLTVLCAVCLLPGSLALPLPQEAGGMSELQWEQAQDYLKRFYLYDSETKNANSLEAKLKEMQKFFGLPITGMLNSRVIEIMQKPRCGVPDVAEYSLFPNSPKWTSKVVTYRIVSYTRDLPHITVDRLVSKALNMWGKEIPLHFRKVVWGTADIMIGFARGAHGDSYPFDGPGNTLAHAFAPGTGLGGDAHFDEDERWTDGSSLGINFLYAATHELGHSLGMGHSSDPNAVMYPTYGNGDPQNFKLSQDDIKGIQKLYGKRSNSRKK
UniProt P08254: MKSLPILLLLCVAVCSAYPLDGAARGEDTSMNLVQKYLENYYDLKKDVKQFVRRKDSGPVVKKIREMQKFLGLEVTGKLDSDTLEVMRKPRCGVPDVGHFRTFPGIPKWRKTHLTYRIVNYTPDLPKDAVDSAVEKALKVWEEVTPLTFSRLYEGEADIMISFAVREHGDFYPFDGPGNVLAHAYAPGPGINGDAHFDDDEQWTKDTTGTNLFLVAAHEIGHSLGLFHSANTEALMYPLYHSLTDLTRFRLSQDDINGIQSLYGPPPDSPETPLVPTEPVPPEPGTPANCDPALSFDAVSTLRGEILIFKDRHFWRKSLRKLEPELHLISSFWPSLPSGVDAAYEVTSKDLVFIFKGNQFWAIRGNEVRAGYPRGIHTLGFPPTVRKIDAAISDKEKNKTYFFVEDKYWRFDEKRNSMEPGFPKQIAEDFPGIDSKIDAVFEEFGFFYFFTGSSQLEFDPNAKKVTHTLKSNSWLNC

Columns and labels:
MMP1 [1] = molecular target: MMP1 (UniProt P03956); experiment: ELISA heatmap, shade read against the OD630 scale 0-4, mean of two assays; mAb 100 nM per paragraph 311
MMP9 = MMP9 (UniProt P14780); experiment: as above
MMP1 [2] = molecular target: MMP1 (UniProt P03956); experiment: dose-response ELISA, mAb 100-0.1 nM, OD630
MMP7 = MMP7 (UniProt P09237); experiment: ELISA heatmap, shade read against the OD630 scale 0-4, mean of two assays; mAb 100 nM per paragraph 311
MMP13 = experiment: as above
KLK4 = experiment: as above
MMP2 = experiment: as above
MMP3 = MMP3 (UniProt P08254); experiment: ELISA on recombinant MMPs

Row | Binder | binding (MMP1 [1]) | binding (MMP9) | binding (MMP1 [2]) | binding (MMP7) | binding (MMP13) | binding (KLK4) | binding (MMP2) | binding (MMP3)
1 | T3 (antibody, human IgG1, V domains shown) VH: EVQLVESGGGLVQPGGSLRLSCAASGFTYFSYAMTWVRQAPGKGLEWVSSVNVRVGTSYYADSVKGRFTISSDISKNTVFLQMNSLRADDTAIYYCATVGATQDLRYFDFWGQGTLVTVSS VL: DIQMTQSPSTLSASVGDRVTITCRASQSVYRLLAWYQQKPGKAPKLLIYDAFKLKSGVPPRFSGSGSGTEFTLTISSLQTDDFASYYCQQYNSYSTFGQGTKVEVK | binds | binds | binds | binds | binds | binds | binds | –
2 | T1 (antibody, V domains shown) VH: EVQLVESGGGLEQPGRSLRLSCAASGFSFGDNAMTWFRQAPGKGLEWVGIIRAKGYGGTTEYAASVKGRFTISRDDSKSIAFLQMNNVKVEDTGVYYCAKYASGWEVGFDPWGQGTLVTVSS VL: AIQMTQSPSSLSASVGDRVTITCRASQFIRNDLGWYQQKPGRAPKLLIYAASGLHSGVPARFSGNGSATDFTLTITSLQPEDFATYYCLQDYNFPWTFGQGTKVEIK | binds | – | – | – | binds | – | – | –
3 | T7 (antibody) heavy: QVQLVESGGGVVQPGRSLKLSSVASGFIFNMYGMHWVRQAPGKGLEWVAVISYDGTKEFYADSVKGRFAISRDDSKNTLSLQMNSLRPEDTAVYYSARSPSGHALDLWGQGTVVTVSS light: DIVMTQSPLSLPVTPGEPASISCKSSQSLLLSNGYNYLDWYLQKPGQSPQLLITLASDRASGVPDRFSGSGSGTELQLKIGRVEAEDVGVYYCMQGLQTPFTFGPGTKVEIK | binds | binds | – | binds | binds | binds | binds | –
4 | T10 (antibody, human IgG1, V domains shown) VH: QVQLVQSGDEVKEPGASVKVSCKASGYSFTRYGITWVRLAPGQGLEWMGWISAYNGDTNLAQKFQGRVTMTTDTSTTTAYMEMRNLRSDDTAVYYCGRDTRYCSGAGCPRPSWYYYYMDVWGKGTTVTVSS VL: DIQMTQSPSSLSASVGHRVTITCRASQTISNHLNWFQQKPGKAPKLLIYAASRLQTGVPSRFSGSGSGTDFTLTISSLQPEDFATYFCQQTYDIPPYTFGQGTKLEIK | binds | binds | binds | binds | binds | binds | binds | –
5 | T4 (antibody, V domains shown) VH: QVQLVQSGGEVKKPGASAKVSCKTSGFTFTSYGISWVRQAPGQGLEWMGWINTYNGNTKYAQRLQGRVSMTTDTSTNTAYMELRSLRSDDTAVYYCARGQGRYGDYIYNHWGQGTLVIVSS VL: DIQMTQSPSTLSASVGDRVTITCRASQIISSWVAWYQQRPGKAPKLLIFDASILESGVPSRFSGSATGTEFSLTISGLQPDDFATYYCQHYNDFPLSFGGGTKVEIK | binds | – | – | – | – | – | – | –
6 | T6 (antibody, V domains shown) VH: QVQLQQSGPGLVKPSQTLSLTCAISGDSVSSNSAAWNWIRQSPSRGLEWLGRTYYRSRWYSDYAFSVRSRIIVKADTSRNLFSLQLNSMTPEDTAIYYCARDLGIAAADWFDSWGQGTLVTVSS VL: EIVMTQSPATLSVSPGDRATLSCRASQSVSNRLAWYQQKPGQAPRLLIYDASTRATDIPARFSGSGSGTEFTLTISSLQSEDFAIYFCHQYHNWPGFGPGTKLEIK | binds | binds | – | – | binds | – | binds | –
7 | T8 (antibody, human IgG1, V domains shown) VH: QVQLQESGPGLVKPSETLSLSCAVSGGSIRGYSWSWIRQPPGKGLEWIADMLYTGTTTFNPSLKSRVTISVDTSKNQFSLKLTSVTAADTAVYYCARGPTVSGPIVVDYWGPGTLVTVSS VL: DIQMTQSPSTLSASVGDRVTITCRASQSISTWLAWYQQKPGKAPKLLIYKASSLESGVPSRFSGSGSGTEFTLTISSLQPDDLATYYCQQYYNYGITFGPGTKVDIQ | binds | binds | binds | – | binds | – | binds | –
8 | T2 (antibody, V domains shown) VH: QVQLVQSGAEVKKPGASVNVSCKASGYNFKAYGVGWVRQAPGQGLEWMGWITPYNGKTNYAQKIQGRVTMTTDTSTTTAYMELRSLQPDDTAMYFCARTPAALASFDYWSQGTLVTVSS VL: DIQMTQSPSTLSASVGDRVTITCRASQSISSWLAWYQQKAGKAPKLLIFDASTLQSGVPSRFSGSGSGTEFSLTISSLQPDDFATYYCQQYYSYSTFGQGTKVEIR | binds | binds | – | – | binds | – | binds | –

The next lines start with the values.

Row | binding (MMP1 [1]) | binding (MMP9) | binding (MMP1 [2]) | binding (MMP7) | binding (MMP13) | binding (KLK4) | binding (MMP2) | binding (MMP3) | Binder
9 | binds | binds | – | – | – | – | – | – | T17 (antibody, V domains shown) VH: EVQLVESGGGLVQPGGSLTLSCTASGFTYFGFAMTWVRQPPGKGLEWISSINLLSGTTYYVDSVKGRFTISRDNSKNTVFLQMKGLTAEDTAVYYCAKVGATQDLHYFDFWGQGTLVTVSS VL: DIQMTQSPSTLSASVGDRVTITCRASQSVYRWLAWYQQKPGEAPKLLVYGAFSLQSGVPPRFSGSGYGTEFTLTISSLQPDDFATYYCQQYNSHSTFGQGTKVEVK
10 | binds | binds | – | binds | binds | binds | binds | – | T27 (antibody, V domains shown) VH: EVQLVESGGGLVQPGRSLRLSCAASGFTFETYAMHWVRQAPGKGLEWVSGISFNSRSRGYADAVRGRFTISRDNSKNSLFLEMNSLRPEDTALYYCARDEKWGTPSDWGQGVLVTVSS VL: QSALTQPASVSRSPGQSITISCTGTKNDVGSYNHVSWYQQHPGKGPKLIIYEVNKRPSGVSDRFSGSKSGNTASLTISGLQAEDEAYYSCSSYAPMTTLVFGGGTKLTVL
11 | binds | binds | – | binds | binds | binds | binds | – | T30 (antibody, V domains shown) VH: EVQLVESGGGVLRPGESLRLSCVASGFTFEDYGMSWVRQVPGKGLEWVSGINWNGGSTRYADSVKGRFTISRDNANNSLYLQMNSLRAEDTALYHCARDKAIQGALMVYAMRGRWFDPWGQGTLVTVSS VL: QAVVTQEPSLTVSPGGTVTLTCGSSTGAVTSGHYPYWFQQKPGQAPRTLIYDTSDRHSWTPARFSGSLRGGKAALTLSGAQPEDEADYYCFLSYNGARVFGGGTKLTVL
12 | binds | binds | binds | binds | binds | binds | binds | – | T11 (antibody, human IgG1, V domains shown) VH: QVQLVESGGGVVQPGGSLRLSCGASGFTFSRYGMHWVRQAPGKGLEWVSFIRYDGTEKYYADSVKGRFTISRDNSKNTLYLQMNSLRADDAAVYFCANPYITPPTNDYWGQGTLVTVSS VL: DIQMTQSPSSLSASVGDKVTITCRASQDISNYLAWFQQKPGKVPKLLIYGASTLLSGVPSRFSGSQSGTNFTLIISSLQPEDVATYYCQKHNSAPWTFGQGTKVEIK
13 | binds | – | binds | – | binds | binds | binds | no binding | T12 (antibody, human IgG1, V domains shown) VH: EVQLVESGGGLVQPGGSLRLSCAASGFTFNNHDMHWVRQVTGKGLEWVSSIGNFGDTYYSGSVKGRFTISRQDAKNSLYLQMNRLRVGDTAVYYCARGRAVAGNPLDVWGKGTTVTVSS VL: EIVMTQSPATLSVSPGETATLSCRANQTLYNNLAWYQQKPGQAPRLLIYSGSTRATGIPARFSGSGSGTEFSLTISSLQSEDFAVYYCQHYTPWPPYTFGQGTKVDFK
14 | – | – | – | – | binds | – | – | – | T19 (antibody, V domains shown) VH: EVQLLESGGGLVQPGGSLRLSCAASGFTFDNYGMSWVRQAPGKGLEWVSVISSGGVGTYYADSVKGRFIISRDNAKNTLYLQMNSLRAEDTAVYYCAKDLLRYESSGYSPWGQGTLVTVSS VL: EIVLTQSPATLSLSPGDRATLSCRASQSVNTYLAWYQHKPGQAPRLLIYDASKRATGIPARFSGSGSGTDFTLTISSLEPEDFAVYYCQQRANRPPLTFGGGTKVEIK
